Residue numbers refer to the chain shown, from its start. These are yes or no findings as the source states them, for the method shown. In cells and extracts the contact can be indirect. Some results given as binding are weak or reduced against the parent protein; the word gives no strength.
How the values were obtained:
[1] = target: T1, ALFA-CD53 WT (UniProt P19397); assay: co-IP; IP of ALFA-tagged tetraspanin (WT or mutant) from transfected KO BJAB cells, blot for the endogenous partner; signal of the co-precipitated partner divided by the signal of the precipitated tetraspanin, normalised to WT
T1 sequence: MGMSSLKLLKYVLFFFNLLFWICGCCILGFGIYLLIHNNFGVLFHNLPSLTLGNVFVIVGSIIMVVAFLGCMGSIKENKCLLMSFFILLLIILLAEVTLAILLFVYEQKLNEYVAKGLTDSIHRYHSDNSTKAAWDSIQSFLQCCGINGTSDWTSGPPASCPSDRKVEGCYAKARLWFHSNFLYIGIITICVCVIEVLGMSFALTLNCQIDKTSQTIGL

Amino acid sequences for entries named in this document (tags omitted). Residues count along the entry.
UniProt P08575, residues 26-1306: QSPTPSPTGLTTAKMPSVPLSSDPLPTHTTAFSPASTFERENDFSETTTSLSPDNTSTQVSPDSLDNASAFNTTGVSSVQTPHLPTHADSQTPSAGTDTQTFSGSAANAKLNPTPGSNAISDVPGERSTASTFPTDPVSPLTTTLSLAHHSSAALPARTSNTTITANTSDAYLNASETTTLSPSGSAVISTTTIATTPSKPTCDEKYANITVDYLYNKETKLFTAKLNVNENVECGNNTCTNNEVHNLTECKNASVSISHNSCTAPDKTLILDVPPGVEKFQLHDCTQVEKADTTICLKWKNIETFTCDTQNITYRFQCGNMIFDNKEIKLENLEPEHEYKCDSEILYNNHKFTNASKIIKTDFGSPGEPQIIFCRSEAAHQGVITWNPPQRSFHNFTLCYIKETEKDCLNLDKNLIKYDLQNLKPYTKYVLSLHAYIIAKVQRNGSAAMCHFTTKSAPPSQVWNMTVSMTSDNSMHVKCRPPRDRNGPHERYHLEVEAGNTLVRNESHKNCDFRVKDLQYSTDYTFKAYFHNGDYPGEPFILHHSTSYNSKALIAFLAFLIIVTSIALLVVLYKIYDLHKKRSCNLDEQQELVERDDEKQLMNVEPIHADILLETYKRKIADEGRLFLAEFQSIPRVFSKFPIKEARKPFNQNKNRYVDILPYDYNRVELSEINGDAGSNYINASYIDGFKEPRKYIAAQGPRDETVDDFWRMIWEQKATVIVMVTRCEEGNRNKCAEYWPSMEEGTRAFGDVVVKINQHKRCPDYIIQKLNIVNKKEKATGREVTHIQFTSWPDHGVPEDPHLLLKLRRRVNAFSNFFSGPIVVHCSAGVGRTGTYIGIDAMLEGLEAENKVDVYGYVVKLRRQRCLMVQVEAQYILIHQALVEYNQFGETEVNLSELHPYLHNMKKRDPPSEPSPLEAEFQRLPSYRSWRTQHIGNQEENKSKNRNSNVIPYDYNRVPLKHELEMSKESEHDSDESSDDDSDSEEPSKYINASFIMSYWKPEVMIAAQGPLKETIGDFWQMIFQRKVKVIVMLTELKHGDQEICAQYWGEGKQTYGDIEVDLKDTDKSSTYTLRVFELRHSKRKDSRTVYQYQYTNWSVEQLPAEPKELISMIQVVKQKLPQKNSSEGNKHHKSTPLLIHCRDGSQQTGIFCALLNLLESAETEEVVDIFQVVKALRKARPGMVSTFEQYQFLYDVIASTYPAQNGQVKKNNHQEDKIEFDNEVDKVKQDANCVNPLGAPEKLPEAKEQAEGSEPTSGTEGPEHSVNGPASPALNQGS

[2] = target: T2, ALFA-CD53 F44E ("closed" CD53) (UniProt P19397); assay: as above
T2 sequence: T1 sequence with F44E

[3] = target: T2, ALFA-CD53 F44E ("closed" CD53); assay: proximity ligation; proximity ligation assay between ALFA-tagged tetraspanin (WT or mutant) and the endogenous partner in transfected KO BJAB cells; details in the Supporting Information

Measured: binding

CD45 (from UniProt P08575 26-1306)
binds: all assays above

Source: article PMC11416636
